Assay [1] has as its target T1, eTEV peptide (…).
T1 sequence (peptide): RENLYFQGKDG
The assay is described as follows: pull-down on immobilised eTEV peptide (Example 1).

Assay [2] has as its target T1, eTEV peptide (…). The assay is described as follows: pull-down from culture supernatant on immobilised eTEV peptide, SDS-PAGE.

Changes are numbered by the printed parent chain. These are yes or no findings as the source states them, for the method shown. In cells and extracts the contact can be indirect. Some entries that bind do so weakly or less than the wild type.

B1: 2H5 antibody-Fv-clasp (v2) (protein)
VH: AVQLVESGGGLVQPKESLKISCAAFGVTFSNVAMYWVRQAPGKGLEWIARIRTKPNNYATYYADSVKGRFTISRDDSKSMVYLQMDNLKTEDTAMYYCTAEVATDWGQGVMVTVCSRSDYEFLKSWTVEDLQKRLLALDPMMEQEIEEIRQKYQSKRQPILDAIEAKTGHHHHHH
VL: DVVLTQAPPTLSATIGQSVSISCRSSQSLLHRNGNTYLNWLLQRPGQPPQLLIYLVSRLESGVPNRFSGSGSGTAFTLKISGLEAEDLGVYYCVQGTHAPLTFGSGTKLEIKRGSDYEFLKSWTVEDLQKRLLALDPMMEQEIEEIRQKYQCKRQPILDAIEAKTGHHHHHH
With B1, the binding entry in the assay with eTEV peptide (…) [1] and with eTEV peptide (…) [2] was “binds” each time.

B2: 2H5 antibody-Fv-clasp (without S-S) (protein)
VH: B1 VH with C115S
VL: B1 VL with C152S
As for B2, in the assay with eTEV peptide (…) [2], the binding entry is “binds”.

The values are drawn from patent US20190276561A1.
